Assay [1] concerns the target T1, Dual specificity tyrosine-phosphorylation-regulated kinase 1B (Homo sapiens, UniProt Q9Y463). Description: Inhibition of human DYRK1B incubated for 130 mins in presence of ATP by ADP-Glo kinase assay. A general note: In ADP-Glo the light output rises with the ADP produced.
In assay [2] the target is T1, Dual specificity tyrosine-phosphorylation-regulated kinase 1B. Description: Inhibition of NanoLuc-fused human DYRK1B expressed in HEK293T cells using Nano-Glo as substrate incubated for 2 hrs by NanoBRET assay. The format is cell-based.

The chains behind the UniProt entries cited, without tags or fusion partners.
UniProt Q9Y463, whole entry: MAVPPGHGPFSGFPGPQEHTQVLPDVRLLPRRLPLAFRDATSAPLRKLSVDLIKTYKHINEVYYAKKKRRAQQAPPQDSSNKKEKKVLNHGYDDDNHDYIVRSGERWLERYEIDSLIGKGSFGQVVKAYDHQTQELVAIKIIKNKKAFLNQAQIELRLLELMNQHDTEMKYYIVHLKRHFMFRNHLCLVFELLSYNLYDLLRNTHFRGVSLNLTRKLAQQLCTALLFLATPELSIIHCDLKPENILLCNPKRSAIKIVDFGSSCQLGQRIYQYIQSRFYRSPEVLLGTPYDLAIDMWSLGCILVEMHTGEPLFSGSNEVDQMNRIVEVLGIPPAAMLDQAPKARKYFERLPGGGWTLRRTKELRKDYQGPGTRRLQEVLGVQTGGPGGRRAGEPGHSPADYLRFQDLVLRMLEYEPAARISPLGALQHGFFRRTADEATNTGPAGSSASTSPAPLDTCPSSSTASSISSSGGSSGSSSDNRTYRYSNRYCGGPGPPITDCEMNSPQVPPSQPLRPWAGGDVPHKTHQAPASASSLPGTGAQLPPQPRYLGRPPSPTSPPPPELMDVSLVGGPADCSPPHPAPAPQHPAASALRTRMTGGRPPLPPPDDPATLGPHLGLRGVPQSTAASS

SMILES strings stand for the structures.

The term Ki denotes a measure of affinity in units of concentration, obtained from inhibition or displacement. As usually defined, the IC50 is the concentration needed to halve the response being measured. Low readings indicate higher potency, high ones lower potency. On to `COc1cc(N2CCN(C)CC2)ccc1Nc1nccc(-c2cn(C)c3cnccc23)n1`, for which the Ki in assay [1] is 11.2 nM. This compound also had an IC50 in assay [2] of 81 nM.

Values taken from ChEMBL document CHEMBL5143696, “Discovery of novel benzothiophene derivatives as potent and narrow spectrum inhibitors of DYRK1A and DYRK1B” (Bioorg Med Chem Lett, 2022).
